log2 fold change data for ten targets are collected here from the supplement of paper PMC12819154, “High-throughput peptide-centric local stability assay extends protein–ligand identification to membrane proteins, tissues and bacteria” (Nature Structural & Molecular Biology, 2025).

By UniProt entry, the sequences of proteins in these tests, tags left out. Where a name states a change or a piece, a line headed by the entry shows the natural chain unless it says otherwise.
UniProt Q8N612: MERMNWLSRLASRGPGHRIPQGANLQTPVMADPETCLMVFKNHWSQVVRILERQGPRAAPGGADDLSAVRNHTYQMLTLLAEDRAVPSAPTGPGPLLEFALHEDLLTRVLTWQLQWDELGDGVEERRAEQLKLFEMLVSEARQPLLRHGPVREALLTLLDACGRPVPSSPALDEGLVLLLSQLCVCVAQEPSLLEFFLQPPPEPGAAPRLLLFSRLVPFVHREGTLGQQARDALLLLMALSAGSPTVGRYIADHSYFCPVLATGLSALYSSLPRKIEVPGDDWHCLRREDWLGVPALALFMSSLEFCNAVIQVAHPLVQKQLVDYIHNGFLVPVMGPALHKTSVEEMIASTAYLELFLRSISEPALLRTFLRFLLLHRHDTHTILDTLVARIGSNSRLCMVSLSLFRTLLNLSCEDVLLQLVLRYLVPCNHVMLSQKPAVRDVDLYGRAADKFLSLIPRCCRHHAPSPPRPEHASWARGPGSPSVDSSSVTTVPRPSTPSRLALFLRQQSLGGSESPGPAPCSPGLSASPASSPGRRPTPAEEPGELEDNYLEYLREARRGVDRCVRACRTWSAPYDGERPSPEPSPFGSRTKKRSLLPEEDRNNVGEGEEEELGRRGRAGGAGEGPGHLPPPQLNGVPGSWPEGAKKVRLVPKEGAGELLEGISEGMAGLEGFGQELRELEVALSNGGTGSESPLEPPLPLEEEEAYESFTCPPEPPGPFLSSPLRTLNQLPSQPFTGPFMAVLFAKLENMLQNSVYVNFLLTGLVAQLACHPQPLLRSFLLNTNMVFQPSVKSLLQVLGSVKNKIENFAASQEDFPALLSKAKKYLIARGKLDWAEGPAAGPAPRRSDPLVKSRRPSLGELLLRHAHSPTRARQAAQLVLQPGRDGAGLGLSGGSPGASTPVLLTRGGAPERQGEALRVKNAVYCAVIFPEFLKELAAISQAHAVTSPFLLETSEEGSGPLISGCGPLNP
UniProt Q8NEZ4, whole entry: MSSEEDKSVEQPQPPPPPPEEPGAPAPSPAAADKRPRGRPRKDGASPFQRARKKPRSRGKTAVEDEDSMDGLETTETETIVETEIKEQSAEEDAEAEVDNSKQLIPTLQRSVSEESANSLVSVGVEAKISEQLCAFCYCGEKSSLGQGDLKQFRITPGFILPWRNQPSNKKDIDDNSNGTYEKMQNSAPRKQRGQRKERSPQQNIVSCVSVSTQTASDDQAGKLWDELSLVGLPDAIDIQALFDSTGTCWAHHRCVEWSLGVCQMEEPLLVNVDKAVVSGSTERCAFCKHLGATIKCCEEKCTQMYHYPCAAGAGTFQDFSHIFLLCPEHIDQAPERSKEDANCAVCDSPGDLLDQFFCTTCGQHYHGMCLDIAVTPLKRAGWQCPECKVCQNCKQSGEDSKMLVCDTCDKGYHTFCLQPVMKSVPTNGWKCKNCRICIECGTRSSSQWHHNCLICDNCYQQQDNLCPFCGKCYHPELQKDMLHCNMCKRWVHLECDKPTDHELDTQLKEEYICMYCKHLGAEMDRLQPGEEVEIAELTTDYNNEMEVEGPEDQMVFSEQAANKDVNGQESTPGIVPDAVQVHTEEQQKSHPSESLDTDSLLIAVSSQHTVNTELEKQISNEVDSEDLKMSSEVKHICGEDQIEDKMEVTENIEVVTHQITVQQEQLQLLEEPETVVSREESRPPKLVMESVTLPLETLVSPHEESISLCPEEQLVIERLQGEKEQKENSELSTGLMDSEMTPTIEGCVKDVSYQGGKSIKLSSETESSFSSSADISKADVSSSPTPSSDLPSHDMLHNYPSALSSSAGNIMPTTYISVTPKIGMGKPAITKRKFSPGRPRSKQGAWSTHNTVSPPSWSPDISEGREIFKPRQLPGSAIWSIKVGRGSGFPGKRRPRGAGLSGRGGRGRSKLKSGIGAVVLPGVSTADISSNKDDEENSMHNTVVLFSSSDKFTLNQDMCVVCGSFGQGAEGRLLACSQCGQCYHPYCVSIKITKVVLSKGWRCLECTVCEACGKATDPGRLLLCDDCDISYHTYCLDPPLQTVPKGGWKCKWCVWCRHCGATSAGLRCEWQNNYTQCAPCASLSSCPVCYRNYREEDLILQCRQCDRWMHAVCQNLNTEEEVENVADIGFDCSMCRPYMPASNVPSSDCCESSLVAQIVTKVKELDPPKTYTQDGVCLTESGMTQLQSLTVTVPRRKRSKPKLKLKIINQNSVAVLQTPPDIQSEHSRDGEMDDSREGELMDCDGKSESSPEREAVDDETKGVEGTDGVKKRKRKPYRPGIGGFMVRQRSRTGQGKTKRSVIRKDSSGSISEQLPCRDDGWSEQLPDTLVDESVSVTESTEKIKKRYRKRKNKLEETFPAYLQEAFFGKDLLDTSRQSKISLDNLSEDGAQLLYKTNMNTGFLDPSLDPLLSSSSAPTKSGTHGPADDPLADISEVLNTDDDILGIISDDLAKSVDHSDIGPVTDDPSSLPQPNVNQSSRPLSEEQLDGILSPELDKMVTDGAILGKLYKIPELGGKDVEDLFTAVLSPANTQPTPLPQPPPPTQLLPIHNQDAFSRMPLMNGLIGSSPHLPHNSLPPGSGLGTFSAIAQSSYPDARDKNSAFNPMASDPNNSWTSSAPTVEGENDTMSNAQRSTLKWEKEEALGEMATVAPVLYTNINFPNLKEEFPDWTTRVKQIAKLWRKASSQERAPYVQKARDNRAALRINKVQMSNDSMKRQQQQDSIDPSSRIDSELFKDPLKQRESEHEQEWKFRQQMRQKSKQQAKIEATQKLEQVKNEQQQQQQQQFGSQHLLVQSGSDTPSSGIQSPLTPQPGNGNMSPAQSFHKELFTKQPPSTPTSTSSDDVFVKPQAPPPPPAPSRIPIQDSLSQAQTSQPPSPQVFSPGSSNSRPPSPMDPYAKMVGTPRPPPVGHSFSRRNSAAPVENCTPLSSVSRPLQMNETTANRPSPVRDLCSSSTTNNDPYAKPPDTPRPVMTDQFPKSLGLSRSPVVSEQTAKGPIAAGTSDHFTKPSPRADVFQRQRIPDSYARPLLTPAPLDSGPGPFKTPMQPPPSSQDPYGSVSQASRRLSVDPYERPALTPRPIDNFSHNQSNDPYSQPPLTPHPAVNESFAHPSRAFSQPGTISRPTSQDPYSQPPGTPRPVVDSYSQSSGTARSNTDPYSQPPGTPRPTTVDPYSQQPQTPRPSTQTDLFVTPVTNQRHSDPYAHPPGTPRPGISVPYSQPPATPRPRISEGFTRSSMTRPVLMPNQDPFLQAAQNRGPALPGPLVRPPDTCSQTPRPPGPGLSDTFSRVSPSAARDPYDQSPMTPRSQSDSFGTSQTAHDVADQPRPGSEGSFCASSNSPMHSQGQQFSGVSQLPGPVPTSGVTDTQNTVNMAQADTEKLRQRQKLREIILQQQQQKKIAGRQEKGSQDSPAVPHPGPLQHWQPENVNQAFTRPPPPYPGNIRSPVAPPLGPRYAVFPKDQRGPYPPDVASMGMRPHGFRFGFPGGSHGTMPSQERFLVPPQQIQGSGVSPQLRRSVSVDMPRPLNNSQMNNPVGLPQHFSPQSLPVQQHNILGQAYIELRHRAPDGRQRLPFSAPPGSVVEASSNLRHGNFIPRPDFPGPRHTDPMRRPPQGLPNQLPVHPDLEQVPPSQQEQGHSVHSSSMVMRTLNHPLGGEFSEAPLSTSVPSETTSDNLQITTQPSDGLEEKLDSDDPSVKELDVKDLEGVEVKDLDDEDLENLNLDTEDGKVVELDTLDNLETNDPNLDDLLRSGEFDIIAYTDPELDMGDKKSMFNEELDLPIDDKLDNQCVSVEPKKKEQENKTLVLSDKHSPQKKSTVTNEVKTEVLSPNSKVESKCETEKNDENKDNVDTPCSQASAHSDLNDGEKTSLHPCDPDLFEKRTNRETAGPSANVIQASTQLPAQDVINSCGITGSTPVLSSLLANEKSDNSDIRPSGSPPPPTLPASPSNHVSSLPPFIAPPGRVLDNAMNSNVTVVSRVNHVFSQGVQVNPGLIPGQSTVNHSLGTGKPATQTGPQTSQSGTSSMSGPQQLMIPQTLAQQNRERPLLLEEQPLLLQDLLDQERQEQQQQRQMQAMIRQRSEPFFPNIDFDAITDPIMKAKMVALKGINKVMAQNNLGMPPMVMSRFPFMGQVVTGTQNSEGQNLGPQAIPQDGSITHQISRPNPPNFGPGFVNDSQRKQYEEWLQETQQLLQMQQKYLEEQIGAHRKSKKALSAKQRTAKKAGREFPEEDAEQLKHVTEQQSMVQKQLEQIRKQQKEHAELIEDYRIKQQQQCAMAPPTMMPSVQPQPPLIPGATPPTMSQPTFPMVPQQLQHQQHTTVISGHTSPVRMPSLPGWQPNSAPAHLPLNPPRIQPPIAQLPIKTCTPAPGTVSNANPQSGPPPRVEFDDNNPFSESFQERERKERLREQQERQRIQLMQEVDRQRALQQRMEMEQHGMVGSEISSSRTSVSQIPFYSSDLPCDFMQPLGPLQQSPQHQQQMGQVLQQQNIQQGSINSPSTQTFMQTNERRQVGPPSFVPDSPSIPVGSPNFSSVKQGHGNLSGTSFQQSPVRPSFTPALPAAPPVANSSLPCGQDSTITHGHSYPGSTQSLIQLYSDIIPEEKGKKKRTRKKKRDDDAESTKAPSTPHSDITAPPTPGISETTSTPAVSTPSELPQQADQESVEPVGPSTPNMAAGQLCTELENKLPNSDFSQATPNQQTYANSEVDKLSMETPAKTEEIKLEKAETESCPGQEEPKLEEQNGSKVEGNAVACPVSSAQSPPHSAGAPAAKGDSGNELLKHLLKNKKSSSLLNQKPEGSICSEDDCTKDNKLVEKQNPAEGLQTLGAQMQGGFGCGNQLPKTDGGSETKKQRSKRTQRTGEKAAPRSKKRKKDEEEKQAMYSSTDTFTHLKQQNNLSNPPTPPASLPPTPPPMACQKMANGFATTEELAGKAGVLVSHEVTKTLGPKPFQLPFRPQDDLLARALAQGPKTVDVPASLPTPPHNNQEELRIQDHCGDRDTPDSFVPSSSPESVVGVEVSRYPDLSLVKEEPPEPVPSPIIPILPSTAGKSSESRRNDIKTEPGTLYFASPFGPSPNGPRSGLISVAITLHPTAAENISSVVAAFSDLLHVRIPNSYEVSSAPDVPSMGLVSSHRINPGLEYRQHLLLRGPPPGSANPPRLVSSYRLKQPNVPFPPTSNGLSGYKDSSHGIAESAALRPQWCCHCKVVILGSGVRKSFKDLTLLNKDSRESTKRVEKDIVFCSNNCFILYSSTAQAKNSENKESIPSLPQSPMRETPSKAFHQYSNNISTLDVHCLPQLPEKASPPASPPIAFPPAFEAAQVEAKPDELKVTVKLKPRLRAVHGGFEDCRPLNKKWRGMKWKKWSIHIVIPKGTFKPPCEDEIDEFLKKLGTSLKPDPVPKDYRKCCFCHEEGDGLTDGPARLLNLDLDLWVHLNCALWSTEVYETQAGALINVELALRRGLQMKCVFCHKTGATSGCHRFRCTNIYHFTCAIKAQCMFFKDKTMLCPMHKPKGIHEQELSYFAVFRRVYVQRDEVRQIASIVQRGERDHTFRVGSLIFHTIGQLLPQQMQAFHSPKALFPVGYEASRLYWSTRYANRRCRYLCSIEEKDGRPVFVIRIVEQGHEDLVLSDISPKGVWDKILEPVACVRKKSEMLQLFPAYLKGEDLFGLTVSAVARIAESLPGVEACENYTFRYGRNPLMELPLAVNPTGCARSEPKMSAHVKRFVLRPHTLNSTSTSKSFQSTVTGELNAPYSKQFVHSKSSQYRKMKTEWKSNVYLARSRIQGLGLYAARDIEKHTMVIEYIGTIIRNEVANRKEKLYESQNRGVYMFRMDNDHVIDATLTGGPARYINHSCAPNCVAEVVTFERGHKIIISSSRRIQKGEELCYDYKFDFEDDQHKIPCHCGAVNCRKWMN
UniProt Q8N5Y2: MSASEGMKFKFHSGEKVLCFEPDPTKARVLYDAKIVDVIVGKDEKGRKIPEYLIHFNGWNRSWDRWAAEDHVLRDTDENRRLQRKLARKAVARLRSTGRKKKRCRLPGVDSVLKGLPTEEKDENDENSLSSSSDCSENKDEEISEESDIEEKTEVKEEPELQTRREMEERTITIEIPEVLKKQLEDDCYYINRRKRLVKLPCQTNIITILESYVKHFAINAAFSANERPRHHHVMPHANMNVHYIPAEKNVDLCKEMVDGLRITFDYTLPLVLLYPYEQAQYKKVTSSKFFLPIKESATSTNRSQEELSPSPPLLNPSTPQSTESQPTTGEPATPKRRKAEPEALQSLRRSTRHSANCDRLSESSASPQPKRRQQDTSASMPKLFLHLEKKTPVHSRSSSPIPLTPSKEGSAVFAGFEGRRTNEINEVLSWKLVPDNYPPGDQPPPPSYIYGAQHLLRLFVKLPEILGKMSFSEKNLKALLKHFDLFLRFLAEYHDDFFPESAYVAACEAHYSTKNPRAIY

The other results are listed elsewhere or left out. Most values lie at the level of the controls, where differences are scatter.

Compound in this assay: Cc1nc(Nc2ncc(C(=O)Nc3c(C)cccc3Cl)s2)cc(N2CCN(CCO)CC2)n1 [dasatinib]
The assay can be described thus: log2 fold change of tryptic peptide abundance, ligand vs vehicle (limited proteolysis) (log2 ratio); higher = more trypsin-susceptible (destabilized). The conditions noted are these: ligand concentration: 5 uM; sample: K562 cleared lysate.
“FAM160A2 (peptide sequence: SISEPALLR, peptide start residue: 360) (UniProt Q8N612)”: the log2 fold change is 0.439.

For the target “KMT2C (peptide sequence: KDGASPFQR, peptide start residue: 42) (UniProt Q8NEZ4)”, the log2 fold change is -0.309.

Take “MSL3 (peptide sequence: EGSAVFAGFEGR, peptide start residue: 409) (UniProt Q8N5Y2)”: the log2 fold change was -0.339.

For the target “DDHD1 (peptide sequence: HYGESITNIGK, peptide start residue: 734) (UniProt Q8NEL9)”, the log2 fold change was 0.171.

As to “TXNDC5 (peptide sequence: LFKPGQEAVK, peptide start residue: 141) (UniProt Q8NBS9)”, the log2 fold change was -0.557.

On to “NFATC2IP (peptide sequence: EKHQTLEVSLSR, peptide start residue: 356) (UniProt Q8NCF5)”, for which the log2 fold change came to 0.323.

Take “RNF169 (peptide sequence: LLPEDTETGKR, peptide start residue: 211) (UniProt Q8NCN4)”: the log2 fold change was -0.337.

As for “C12orf29 (peptide sequence: HPLHLLIPHGAFQIR, peptide start residue: 213) (UniProt Q8N999)”, the log2 fold change was -0.274.

With “SIX5 (peptide sequence: GLGTQAPHTVLR, peptide start residue: 684) (UniProt Q8N196)”, the log2 fold change was -0.255.

For “ARHGAP18 (peptide sequence: RYGQYTMNQESTTIK, peptide start residue: 40) (UniProt Q8N392)”, the log2 fold change came to 0.213.
